Data as given in article PMC3777911.
These are yes or no findings as the source states them, for the method shown. Some binding calls cover weakened binding; strength is not graded here.

Sequences of proteins named here, by UniProt entry; tags and fusion partners are left off. A change or cut given only in a name is not applied to a line headed by its entry.
UniProt P55735: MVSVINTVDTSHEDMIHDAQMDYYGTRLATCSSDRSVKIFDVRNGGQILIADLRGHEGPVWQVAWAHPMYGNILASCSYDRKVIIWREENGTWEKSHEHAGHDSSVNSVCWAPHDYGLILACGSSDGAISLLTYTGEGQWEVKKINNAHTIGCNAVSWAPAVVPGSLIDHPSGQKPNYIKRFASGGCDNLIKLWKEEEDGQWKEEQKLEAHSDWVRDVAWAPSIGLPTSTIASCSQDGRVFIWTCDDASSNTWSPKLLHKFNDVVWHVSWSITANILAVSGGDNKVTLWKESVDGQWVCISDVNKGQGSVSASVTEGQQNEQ

Target: HA-Sec13/His-Sec31A complex (outer COPII coat), wild type (UniProt P55735)
Experiment: pull-down; His-tagged Sec31A (Sec13/Sec31A) immobilised on Nickel beads, recombinant ALG-2 versions added, in the presence of Ca2+; eluates on SDS-PAGE, SyproRed; ratios from fluorescence intensity; both purified

B1: ALG-2 with the E114A substitution in EF-hand 3 (protein, UniProt P12815 1-191)
chain: MAAYSYRPGPGGGPGPAAGAALPDQSFLWNVFQRVDKDRSGVISDNELQQALSNGTWTPFNPVTVRSIISMFDRENKAGVNFSEFTGVWKYITDWQNVFRTYDRDNSGMIDKNALKQALSGFGYRLSDQFHDILIRKFDRQGRGQIAFDDFIQGCIVLQRLTDIFRRYDTDQDGWIQVSYEQYLSMVFSIV
- binding: binds
